Article PMC3585349
Results are given in words; binding and its absence hold for the method and conditions named. For part of these data: In cells and extracts the contact can be indirect. Some binding calls cover weakened binding; strength is not graded here.

Amino acid sequences for entries named in this document (tags omitted). A change or cut given only in a name is not applied to a line headed by its entry. Residues count along the entry.
UniProt P08514: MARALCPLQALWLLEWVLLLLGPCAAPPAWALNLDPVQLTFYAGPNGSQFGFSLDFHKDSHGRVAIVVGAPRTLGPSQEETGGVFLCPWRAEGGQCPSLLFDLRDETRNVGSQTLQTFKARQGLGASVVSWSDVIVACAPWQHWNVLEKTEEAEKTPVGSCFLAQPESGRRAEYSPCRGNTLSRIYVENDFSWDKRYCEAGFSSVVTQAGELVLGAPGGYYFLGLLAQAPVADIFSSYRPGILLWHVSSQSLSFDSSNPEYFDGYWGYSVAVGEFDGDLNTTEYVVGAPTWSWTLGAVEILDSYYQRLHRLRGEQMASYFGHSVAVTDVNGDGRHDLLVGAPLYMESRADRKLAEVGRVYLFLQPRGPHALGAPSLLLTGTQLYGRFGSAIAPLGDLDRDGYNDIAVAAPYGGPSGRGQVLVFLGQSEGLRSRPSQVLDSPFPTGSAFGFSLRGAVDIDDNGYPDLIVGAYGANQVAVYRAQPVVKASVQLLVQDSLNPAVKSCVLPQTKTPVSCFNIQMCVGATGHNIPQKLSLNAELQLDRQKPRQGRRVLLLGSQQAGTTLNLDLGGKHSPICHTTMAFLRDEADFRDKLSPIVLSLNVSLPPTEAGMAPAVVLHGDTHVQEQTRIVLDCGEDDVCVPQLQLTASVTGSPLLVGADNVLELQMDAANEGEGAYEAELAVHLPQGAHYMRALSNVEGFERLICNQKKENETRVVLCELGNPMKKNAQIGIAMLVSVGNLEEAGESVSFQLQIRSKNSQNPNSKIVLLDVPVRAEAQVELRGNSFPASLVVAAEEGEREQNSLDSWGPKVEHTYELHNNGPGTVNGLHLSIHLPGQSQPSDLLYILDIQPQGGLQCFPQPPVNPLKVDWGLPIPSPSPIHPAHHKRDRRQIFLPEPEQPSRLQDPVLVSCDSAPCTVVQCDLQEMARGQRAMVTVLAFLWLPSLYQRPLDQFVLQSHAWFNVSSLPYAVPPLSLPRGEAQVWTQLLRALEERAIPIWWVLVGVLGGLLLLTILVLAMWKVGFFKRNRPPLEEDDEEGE
UniProt P05106: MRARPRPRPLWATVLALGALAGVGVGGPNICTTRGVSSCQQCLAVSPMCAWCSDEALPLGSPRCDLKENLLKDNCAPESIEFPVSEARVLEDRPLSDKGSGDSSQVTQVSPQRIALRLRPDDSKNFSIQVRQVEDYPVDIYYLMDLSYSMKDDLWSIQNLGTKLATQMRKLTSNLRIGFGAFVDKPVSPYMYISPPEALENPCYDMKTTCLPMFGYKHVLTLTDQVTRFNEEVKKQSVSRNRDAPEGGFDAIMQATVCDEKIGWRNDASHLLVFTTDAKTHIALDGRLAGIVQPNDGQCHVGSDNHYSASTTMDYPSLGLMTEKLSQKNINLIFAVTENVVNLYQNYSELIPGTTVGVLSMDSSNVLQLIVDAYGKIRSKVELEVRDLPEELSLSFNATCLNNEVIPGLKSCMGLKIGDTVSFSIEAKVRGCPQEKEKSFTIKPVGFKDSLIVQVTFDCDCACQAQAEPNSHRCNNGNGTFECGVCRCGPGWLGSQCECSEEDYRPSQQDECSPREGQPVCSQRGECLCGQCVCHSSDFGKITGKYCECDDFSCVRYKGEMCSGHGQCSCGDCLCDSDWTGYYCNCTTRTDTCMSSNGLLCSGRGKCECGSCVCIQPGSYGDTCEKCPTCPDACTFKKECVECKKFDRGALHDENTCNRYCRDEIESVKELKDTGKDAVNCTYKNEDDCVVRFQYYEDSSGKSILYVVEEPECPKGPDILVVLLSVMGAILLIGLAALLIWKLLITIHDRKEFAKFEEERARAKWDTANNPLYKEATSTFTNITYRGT
UniProt P11464, residues 35-419: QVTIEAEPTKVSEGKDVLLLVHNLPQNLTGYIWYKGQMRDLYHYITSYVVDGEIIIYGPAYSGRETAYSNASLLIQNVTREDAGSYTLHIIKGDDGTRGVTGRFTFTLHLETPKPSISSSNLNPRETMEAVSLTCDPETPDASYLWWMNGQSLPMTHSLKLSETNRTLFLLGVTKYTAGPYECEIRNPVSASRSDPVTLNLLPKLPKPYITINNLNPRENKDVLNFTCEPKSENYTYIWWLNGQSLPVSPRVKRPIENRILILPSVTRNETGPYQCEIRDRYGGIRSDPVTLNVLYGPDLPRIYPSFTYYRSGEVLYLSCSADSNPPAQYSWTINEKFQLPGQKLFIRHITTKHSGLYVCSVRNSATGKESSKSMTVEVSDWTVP
UniProt Q00887, residues 35-426: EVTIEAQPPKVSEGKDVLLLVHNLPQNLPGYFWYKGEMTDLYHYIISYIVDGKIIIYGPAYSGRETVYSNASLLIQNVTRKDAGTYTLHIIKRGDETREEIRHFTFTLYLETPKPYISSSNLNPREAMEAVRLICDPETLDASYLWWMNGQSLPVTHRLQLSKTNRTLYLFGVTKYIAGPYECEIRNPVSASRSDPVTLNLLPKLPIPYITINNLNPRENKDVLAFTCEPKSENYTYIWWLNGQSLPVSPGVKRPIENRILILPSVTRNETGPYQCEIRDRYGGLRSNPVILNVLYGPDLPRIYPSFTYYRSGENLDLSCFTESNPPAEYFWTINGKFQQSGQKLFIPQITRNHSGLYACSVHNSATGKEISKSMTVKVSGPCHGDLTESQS

How the values were obtained:
[1] = target: T1, human integrin αIIbβ3 in a stably transfected CHO cell line (human) (UniProt P08514+P05106); assay: fluorescent ligand binding to adherent cells (LI-COR Odyssey plate scan); 50 µg/ml Dylight-800 labelled PSG1 on αIIbβ3 dual-transfected or mock-transfected CHO-K1 cells in 96-well plates, 30 min at 37°C; washed, fixed; signal normalised to SYTO60; only the binder purified
[2] = target: platelet integrin αIIbβ3 on washed human platelets (human (endogenous in human platelets)) (UniProt P08514+P05106); assay: flow cytometry on cells; binding of Oregon Green fibrinogen (OgFg) to washed human platelets in the presence of PSG proteins (about 5 to 100 or 200 µg/ml), 10 min RT before and 10 min after 3.4 µM TRAP; in separate series 250 nM U46619, 10 µM ADP or 25 µM epinephrine as agonist; TRAP-activated set at 100%, resting at 0%; only the binder purified
[3] = target: T1, human integrin αIIbβ3 in a stably transfected CHO cell line (human); assay: co-IP; αIIbβ3 immunoprecipitated with anti-αIIbβ3 mAb and Protein G agarose from lysates of stably transfected CHO cells (Tris HCl pH 7.4, 150 mM NaCl, 1% NP40); washed beads incubated with purified PSG1 1 h at RT; western blot; sham transfected CHO lysate as control; only the binder purified

fluorescent PSG1 (PSG1–800), recombinant PSG1 labelled with Dylight-800 (from UniProt P11464 35-419)
binding [1]: binds

recombinant human PSG9 (from UniProt Q00887 35-426)
binding [2]: binds

recombinant wildtype human PSG1 (pregnancy-specific glycoprotein 1, PSG1a) (from UniProt P11464-1 35-419)
binding [3]: binds
